Reference: PubChem BioAssay AID488837 (National Center for Advancing Translational Sciences (NCATS), 2010)
The whole screen tested about 330,000 compounds, of which about 20 (0.006%) were called active. The shares of active, inactive and inconclusive entries below differ from those in the screen. Calls come from the whole dose curve; as a rule, active = well fitted inhibition curve with a large enough effect; inconclusive = small, poorly fitted or top-dose-only effect, or effect the other way; inactive = flat fitted curve, though single readings scatter. Where the call is inconclusive, the potency comes from a doubtful curve fit.

The chains behind the UniProt entries cited, without tags or fusion partners. Where a name states a change or a piece, a line headed by the entry shows the natural chain unless it says otherwise.
UniProt O00167: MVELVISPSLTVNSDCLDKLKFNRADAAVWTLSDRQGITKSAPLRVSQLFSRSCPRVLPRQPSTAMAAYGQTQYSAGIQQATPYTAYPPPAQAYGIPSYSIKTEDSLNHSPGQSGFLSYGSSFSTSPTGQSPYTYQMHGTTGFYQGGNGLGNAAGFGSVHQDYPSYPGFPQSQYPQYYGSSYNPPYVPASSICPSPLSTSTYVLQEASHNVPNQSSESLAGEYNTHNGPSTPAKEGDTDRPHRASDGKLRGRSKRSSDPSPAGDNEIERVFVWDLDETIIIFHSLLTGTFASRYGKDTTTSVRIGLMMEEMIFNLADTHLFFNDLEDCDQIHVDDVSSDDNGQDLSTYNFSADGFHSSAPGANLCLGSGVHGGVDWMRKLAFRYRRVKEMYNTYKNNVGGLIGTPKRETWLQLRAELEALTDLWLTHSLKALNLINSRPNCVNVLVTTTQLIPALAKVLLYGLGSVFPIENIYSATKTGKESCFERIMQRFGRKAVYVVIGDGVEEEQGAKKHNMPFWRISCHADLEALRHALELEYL

Molecular target: Protein phosphatase EYA2 (Homo sapiens) (UniProt O00167)
Assay: qHTS Assay for Inhibitors of the Phosphatase Activity of Eya2
Conditions: recombinant Eya2, OMFP fluorescence dephosphorylation (OMFP is methylfluorescein phosphate); activity, negative = inhibition: at 76.9 µM (top of the series) unless noted
Procedure, shortened: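 Eya2 (0.2 uM) preincubated 10 min at ambient with compound, then OMFP substrate added at 50 uM; 10 min reaction in 50 mM HEPES pH 7.5, 50 mM NaCl, 5 uM MgCl2, 0.05% BSA, 1 mM DTT. Fluorescence read at Ex 485/Em 525 nm.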
% is set by controls: 0 for no effect and ±100 for the full control effect; potency is the fitted concentration of half-maximal effect.

| Structure (SMILES) | activity, negative = inhibition | Potency |
| --- | --- | --- |
| CC(C)(C)OC(=O)N1CC=C2C(C#N)=C(N)C(C#N)(C#N)[C@H](c3cccnc3)[C@H]2C1 | inactive: -3.23% | – |
| Cc1cc(C(=O)OCC(=O)c2cccc([N+](=O)[O-])c2)c2cccc(C)c2n1 | – | inconclusive: 15.8 µM [inhibitor, single point] |
| C#CCOCCOCCOCCNc1nc(N2CCN(C(=O)CCCCCCCCCCNC(=O)[C@H](CCCCN)n3cc(C)nn3)CC2)nc(N2CCN(C(=O)CCCCCCCCCCNC(=O)[C@H](CCCN=C(N)N)n3cc(C[C@@H](C)CC)nn3)CC2)n1 | – | active: 22.4 µM |
| COc1ccc(-c2cc3nc(C)cc(-c4ccc(OC)cc4)n3n2)cc1 | inactive: -9.43% | – |
| COc1ccc(OCC(=O)NNC(=O)c2cccs2)cc1 | – | inconclusive: 22.4 µM [inhibitor, single point] |
| O=C(NC1CCN(S(=O)(=O)c2cccc(F)c2)CC1)c1cccc(F)c1 | – | inconclusive: 100 µM [inhibitor, single point] |
| C#CCOCCOCCOCCNc1nc(N2CCN(C(=O)CCCCCCCCCCNC(=O)[C@H]([C@@H](C)CC)n3cc(CCCCN=C(N)N)nn3)CC2)nc(N2CCN(C(=O)CCCCCCCCCCNC(=O)[C@H](CCCCN)n3cc(C)nn3)CC2)n1 | inactive: -14.5% | – |
| O=S(=O)(NCC1CC1)c1cccc(S(=O)(=O)N2CCCC2)c1 | – | inconclusive: 79.4 µM [inhibitor, single point] |
| O=C(CCN1CCN(S(=O)(=O)c2ccc(Cl)cc2)CC1)Nc1ccc(F)cc1 | – | inconclusive: 89.1 µM [inhibitor, partial curve] |
| CCOC(=O)C1CCCCN1Cc1cccc(Oc2ccccc2)c1 (stereo not given) | – | inconclusive: 398 µM [inhibitor, single point] |
| CCCCNC(=O)N1CCCN(c2ccc(C#N)cn2)CC1 | – | inconclusive: 20 µM [inhibitor, single point] |
| Cc1ccsc1/C=N/NC(=O)C1CC(=O)N(c2ccc(F)cc2)C1 (stereo not given) | – | inconclusive: 100 µM [inhibitor, single point] |
| CCCCSc1nc(O)cc(=O)n1CC | inactive: -2.94% | – |
| O=C(NCCc1ccccc1Cl)C1CCC(=O)N(Cc2cccc(C(F)(F)F)c2)C1 (stereo not given) | – | inconclusive: 25.1 µM [inhibitor, single point] |
| CC(C)c1ccccc1NC(=O)CNCCOc1ccccc1F | – | inconclusive: 22.4 µM [inhibitor, single point] |
| COc1cc2nc(CCc3ccccc3)oc(=O)c2cc1OC | – | inconclusive: 20 µM [inhibitor, single point] |
| N#Cc1cccc(C(c2nnnn2C2CCCC2)N2CCCCCC2)c1 (stereo not given) | – | inconclusive: 39.8 µM [inhibitor, partial curve] |
| COc1ccccc1-n1cc(CN2CCN(CC=C(C)C)C(CCO)C2)cn1 (stereo not given) | – | inconclusive: 70.8 µM [inhibitor, partial curve] |
| O=C(O)CC1COc2ccccc2N1C(=O)c1ccccc1Cl (stereo not given) | – | inconclusive: 39.8 µM [inhibitor, partial curve, poor fit] |
| CC(NS(=O)(=O)c1ccc(Cl)c(Cl)c1)C(=O)OCC(=O)Nc1ccc2c(c1)OCO2 (stereo not given) | – | inconclusive: 22.4 µM [inhibitor, single point] |
| COc1ccc2c(c1)n([O-])c1c([n+]2=O)CCC1 | – | inconclusive: 20 µM [inhibitor, single point] |
| CCN1C(=O)/C(=C\C=C\c2ccccc2[N+](=O)[O-])SC1=S | – | inconclusive: 28.2 µM [inhibitor, single point] |

Random excerpt: 2 compounds from above

| Structure (SMILES) | activity, negative = inhibition | Potency |
| --- | --- | --- |
| Cc1cc(C(=O)OCC(=O)c2cccc([N+](=O)[O-])c2)c2cccc(C)c2n1 | – | inconclusive: 15.8 µM [inhibitor, single point] |
| O=S(=O)(NCC1CC1)c1cccc(S(=O)(=O)N2CCCC2)c1 | – | inconclusive: 79.4 µM [inhibitor, single point] |

Next entries:

| Structure (SMILES) | activity, negative = inhibition | Potency |
| --- | --- | --- |
| CC(/C=N/n1c(-c2cccnc2)n[nH]c1=S)=C\c1ccco1 | – | inconclusive: 112 µM [inhibitor, single point] |
| CC(=O)c1c(C)[nH]c(C(=O)OCC(=O)N2CCN(S(=O)(=O)c3ccc(C)cc3)CC2)c1C | inconclusive: 36.1% [activator] | – |
| COc1cccc(OCC(=O)NC2CCCCC2)c1 | – | inconclusive: 112 µM [inhibitor, partial curve] |
| COc1cccc(NC(=O)CN(C)C(=O)C(CCSC)NC(=O)c2ccco2)c1 (stereo not given) | – | inconclusive: 22.4 µM [inhibitor, single point] |
| O=C(N[C@@H](Cc1ccc(O)cc1)C(=O)O)c1cccnc1 | – | inconclusive: 25.1 µM [inhibitor, partial curve] |
| CCCCN(CCCC)CCCNC(=O)C1CC(c2ccc(C(F)(F)F)cc2)=NO1 (stereo not given) | – | inconclusive: 39.8 µM [inhibitor, partial curve, poor fit] |
| CC(=O)/C(=C/c1ccccc1)C(=O)Nc1ccccc1C | – | inconclusive: 200 µM [inhibitor, partial curve, poor fit] |
| Nc1nc(CN2CCN(Cc3ccccc3)CC2)nc(Nc2ccccc2)n1 | inactive: 7.63% | – |
| Cc1ccc(NC(=O)/C(C#N)=N/Nc2ccc(C(=O)O)cc2)c(C)c1 | inactive: 13% | – |
| C=Cc1ccc(Cn2nc(-c3ccc(C)cc3)ccc2=O)cc1 | – | inconclusive: 141 µM [inhibitor, single point] |
| CC1=C(C(=O)OC2CCCC2)C(c2coc3ccccc3c2=O)C2=C(CC(C)(C)CC2=O)N1 (stereo not given) | – | inconclusive: 89.1 µM [inhibitor, single point] |
| COC(=O)c1c(C(=O)OC)c2ccccn2c1C(=O)c1ccccc1 | inactive: -24.8% | – |
| O=S(=O)(NCc1csc(-c2cccs2)n1)c1ccc(Cl)cc1 | – | inconclusive: 70.8 µM [inhibitor, partial curve, poor fit] |
| CCNC(=O)NCCNC(=O)c1cc(OCC(F)(F)F)ccc1OCC(F)(F)F | – | inconclusive: 1410 µM [inhibitor, single point] |
| CCC1c2ccc(C)n2CCN1C(=O)Nc1ccccc1C(=O)OC (stereo not given) | inconclusive: 72.9% [activator] | – |
| C=CC(=O)N1CCCC(Nc2nc(Nc3ccc(N(C)C(=O)CC)cc3C)nc3nc[nH]c23)C1 (stereo not given) | inactive: 5.38% | – |
| COC(=O)c1ccc(/C=C2\SC(=S)N(CCCC(=O)NCCCN3CCOCC3)C2=O)cc1 | – | inconclusive: 20 µM [inhibitor, single point] |
| COc1cccc(C2c3c(-c4ccccc4O)n[nH]c3C(=O)N2Cc2ccco2)c1 (stereo not given) | inconclusive: -34% [inhibitor] | – |
| COCc1cccc(N2C(=O)CC(C3C=C(C)C4C(=O)N(c5cccc(COC)c5)C(=O)C4C3)C2=O)c1 (stereo not given) | – | inconclusive: 1410 µM [inhibitor, partial curve, poor fit] |
| O=C1OC(c2cccs2)=N/C1=C/c1ccc(-c2cccc(C(=O)O)c2)o1 | inactive: 13% | – |
| O=C(NC1CCCCC1)C(c1ccco1)N(C(=O)c1csnn1)c1ccccc1 (stereo not given) | inactive: -11.9% | – |
| O=C(O)[C@@H]1CC(O)CN1C(=O)CCc1c[nH]c2ccccc12 (stereo not given in full) | – | inconclusive: 25.1 µM [inhibitor, single point] |

| Structure (SMILES) | activity, negative = inhibition | Potency |
| --- | --- | --- |
| COc1ccc(OC)c(-n2c(-c3ccn[nH]3)n[nH]c2=S)c1 | – | inconclusive: 126 µM [inhibitor, single point] |
| CS/C(N)=N/C(=S)Nc1cccc(Cl)c1 | – | inconclusive: 89.1 µM [inhibitor, single point] |
| O=C(Oc1cccc2c(OC(=O)N3CCOCC3)cccc12)N1CCOCC1 | – | inconclusive: 17.8 µM [inhibitor, single point] |
| COc1cc(C(=O)NCc2nnc(SCC(=O)N3CCCc4ccccc43)o2)cc(OC)c1OC | – | inconclusive: 22.4 µM [inhibitor, single point] |
| C/C(=N/NC(=O)c1ccccc1)C(=O)O | inactive: -6.41% | – |
| COc1ccccc1N(CC(=O)Nc1ccc(S(=O)(=O)N2CCOCC2)cc1)S(C)(=O)=O | – | inconclusive: 100 µM [inhibitor, single point] |
| CCS(=O)(=O)N1CCC(C(=O)NCC2CCCO2)CC1 (stereo not given) | – | inconclusive: 15.8 µM [inhibitor, single point] |
| Cc1cccc(C)c1NC(=O)COC(=O)Cc1ccsc1 | inactive: -5.71% | – |
| O=C(O)c1ccc(/C=N/NC(=S)NCCN2CCOCC2)cc1 | – | inconclusive: 100 µM [inhibitor, single point] |
| COC(=O)c1scc(S(=O)(=O)C(C)(C)C)c1N | – | inconclusive: 100 µM [inhibitor, single point] |
| COc1ccc(S(=O)(=O)Cc2ccc(C(=O)N3CCOCC3)o2)cc1 | inactive: -5.2% | – |
| O=C(NC1CCCC1)C1CCC(=O)N1C1CCCCC1 (stereo not given) | – | inconclusive: 100 µM [inhibitor, partial curve, poor fit] |
| C#CCN1C(C)=C(C(=O)OC)C(c2cccc([N+](=O)[O-])c2)C(C(=O)OCC)=C1C (stereo not given) | – | inconclusive: 126 µM [inhibitor, single point] |
| O=C1CSC(=S)N1/N=C/c1cc(Br)c(O)c(Br)c1 | – | inconclusive: 31.6 µM [activator, partial curve] |
| NC1=C([N+](=O)[O-])C(c2ccc3c(c2)OCO3)C2=C(CCCC2=O)O1 (stereo not given) | – | inconclusive: 39.8 µM [inhibitor, partial curve, poor fit] |
| CCOC(=O)c1ccccc1NC(=O)Cc1ccc(S(=O)(=O)N2CCCC2)s1 | inactive: 3.27% | – |
| NS(=O)(=O)c1ccc(-c2ccc(/C=N/NC(=O)c3ccccc3O)o2)cc1 | – | inconclusive: 112 µM [inhibitor, partial curve] |
| COc1ccc(Oc2c(-c3ccc(O)cc3O)n[nH]c2C)cc1 | inactive: -10.4% | – |
| Fc1ccc(Cn2cccc2C2=NC(c3ccccc3)CO2)cc1 (stereo not given) | – | inconclusive: 35.5 µM [inhibitor, single point] |
| COC1=CC(=Cc2c(N)n3nc(CC(=O)N4CCOCC4)sc3nc2=O)C=C(OC)C1=O | inconclusive: 33.4% [activator] | – |
| Cc1cc(NCCO)c2ccccc2n1 | inconclusive: 31.8% [activator] | – |

Another view of 2 compounds above:
COc1cc(C(=O)NCc2nnc(SCC(=O)N3CCCc4ccccc43)o2)cc(OC)c1OC
  Potency: inconclusive: 22.4 µM [inhibitor, single point]
COC(=O)c1scc(S(=O)(=O)C(C)(C)C)c1N
  Potency: inconclusive: 100 µM [inhibitor, single point]
